From doi:10.1101/2021.03.29.435803
These are yes or no findings as the source states them, for the method shown. Binding seen in cells or lysates may run through a third protein. Some entries that bind do so weakly or less than the wild type.

By UniProt entry, the sequences of proteins in these tests, tags left out.
UniProt Q60843: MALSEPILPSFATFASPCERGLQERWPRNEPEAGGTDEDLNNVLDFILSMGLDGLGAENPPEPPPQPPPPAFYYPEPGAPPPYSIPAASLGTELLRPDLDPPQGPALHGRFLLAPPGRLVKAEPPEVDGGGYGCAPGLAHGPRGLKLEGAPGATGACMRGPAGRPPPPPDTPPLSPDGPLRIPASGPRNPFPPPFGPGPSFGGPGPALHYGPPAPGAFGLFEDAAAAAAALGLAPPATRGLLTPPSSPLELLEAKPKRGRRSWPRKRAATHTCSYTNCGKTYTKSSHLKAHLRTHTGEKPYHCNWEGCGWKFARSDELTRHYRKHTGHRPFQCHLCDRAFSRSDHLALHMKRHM
UniProt Q8VBV4: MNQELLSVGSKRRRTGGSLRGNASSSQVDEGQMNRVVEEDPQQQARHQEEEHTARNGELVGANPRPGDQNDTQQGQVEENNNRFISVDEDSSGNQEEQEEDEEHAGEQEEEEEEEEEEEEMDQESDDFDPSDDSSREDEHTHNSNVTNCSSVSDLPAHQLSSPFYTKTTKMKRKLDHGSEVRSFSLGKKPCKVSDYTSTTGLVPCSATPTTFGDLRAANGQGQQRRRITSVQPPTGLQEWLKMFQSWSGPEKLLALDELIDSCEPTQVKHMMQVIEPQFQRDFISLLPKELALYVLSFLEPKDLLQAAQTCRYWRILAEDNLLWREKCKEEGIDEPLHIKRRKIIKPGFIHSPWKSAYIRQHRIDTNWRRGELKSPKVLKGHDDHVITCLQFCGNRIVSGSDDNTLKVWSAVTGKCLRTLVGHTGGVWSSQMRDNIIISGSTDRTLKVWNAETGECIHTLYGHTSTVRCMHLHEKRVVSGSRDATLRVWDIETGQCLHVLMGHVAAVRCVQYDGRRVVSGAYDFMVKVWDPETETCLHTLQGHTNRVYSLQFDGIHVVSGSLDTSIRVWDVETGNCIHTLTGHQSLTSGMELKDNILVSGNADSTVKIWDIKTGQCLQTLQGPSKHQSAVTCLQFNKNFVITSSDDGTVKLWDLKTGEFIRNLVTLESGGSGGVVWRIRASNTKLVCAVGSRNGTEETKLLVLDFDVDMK

Molecular target: 3xFLAG-KLF2 wildtype (UniProt Q60843)
Assay: co-IP

**Q.** How did the binding turn out when HA-FBXW7 (from UniProt Q8VBV4 1-710) was run?
**A.** binds
